Measured values as given in PubChem BioAssay AID1347426 (Functional Genomics Laboratory (NCATS/FGL), 2020).
Screen size: about 31,000 sequences; about 1,400 (4.5%) were called active.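 The calls were made as follows: active = median seed-adjusted z-score above 1 or below -1; inactive = the rest.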 The list shows a part of the results.

Experiment: Novel Modifiers of Survival Motor Neuron (SMN) Protein: Gene Identification via Genome-wide siRNA Screen;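 also: luminescence tracks full-length SMN protein made from the SMN2 reporter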
Conditions: HEK293T SMN2-luciferase reporter, siRNA knockdown, 72 h; actives lie on both sides
How it was run: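 Steps: spot 1 pmol siRNA, add Lipofectamine RNAiMax in serum-free DMEM, seed HEK293T SMN2–luciferase reporter cells; incubate 72 h at 37 °C; add ONE-Glo; normalize luminescence to control siRNA, log10, MAD. Candidates: |MAD| > 1.0.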

Sequence	median seed-adjusted z-score
GAAUCCAAAUAAACCCUGATT against NHLH2	inactive: 0
GAGUGAUGCCGGUAAAGAATT against CASP2	inactive: 0.421
CAAAUUGCCUCGUCAAAGATT against DNTT	inactive: 0.316
CAACAGUUCAAUGAAUCAATT against FOXP2	inactive: 0.222
GUGAAUACAUGGAUAAAAATT against SSBP1	inactive: -0.456
GCUUCUUAGCUGAGGAAAATT against RDH11	inactive: -0.241
CAAUGAUCCCAAGACAAAATT against RNASEH2A	inactive: -0.158
UCCUCUAUGUGGAGAAUGATT against G6PD	inactive: 0.593
GACGAGGUAUGUGAAGACATT against RING1	inactive: 0.685
GCAACCCUGUCUACAGUAATT against SMAP1	inactive: -0.201
CAACGAAAUGUUUACUGCATT against ADAMTS9	inactive: 0.103
GAACAUGUAUGGUAGUAAATT against GABBR2	inactive: -0.038
AAAAAGACACCUUAACAUATT against SAP30	inactive: -0.618
GAAUCACCGAGAAGAUGGATT against RORA	inactive: -0.144
AUAUCACUGCAAAGGUUUATT against KLRC4	inactive: -0.218
GCUCUUAUGCGACAGUUUATT against PFTK2	active: -1.16
CGACAUUCUUGAGUGUGAATT against PLG	inactive: 0.00473
CGCUGUUCGUCCACCUGAATT against ADAMTS8	inactive: 0.115
CUAUACUUCUCCAACGUGATT against NFASC	inactive: 0.594
AGCUGAAGGAGGAUACAGATT against RBM19	inactive: 0.204
CUUUUUCGAUGAAUCUCAATT against ESX1	inactive: 0.275
GGAUCUGGAAGGUAGAAAATT against CHAF1B	inactive: 0.634
CAUGCUUGCUGAUCAGCUATT against RAC3	inactive: 0.477
CGACACUCACUGUACUUCATT against ATG4D	inactive: -0.216
CUCCCAACGUGGUCAAGCATT against PAX1	inactive: -0.111
UCCUGUUCCGCGACCCUUATT against CAPN12	inactive: 0.155
CACUGAGAGUAAUCGCUAUTT against NUP160	inactive: -0.261
GUCAUGUACUGGAAGCUCATT against WFS1	inactive: 0.696
CCACGGAUCUGAGAUUAAATT against ARSJ	inactive: -0.0978
GAGGAUUCGCUAUAAGAAATT against PBX2	inactive: 0.253

Two successive records from above:
Sequence	median seed-adjusted z-score
GAGUGAUGCCGGUAAAGAATT against CASP2	inactive: 0.421
CAAAUUGCCUCGUCAAAGATT against DNTT	inactive: 0.316
